Transcripts significantly downregulated and transcripts significantly upregulated data for 1 compound are collected here from paper PMC10852989, “Combining cisplatin and a STING agonist into one molecule for metalloimmunotherapy of cancer” (National Science Review, 2024).

In the data set the test system is Pan02 cells. In words: bulk mRNA sequencing of treated Pan02 cells. The data set is classed as cell-based, mouse. As to conditions: Pan02, 5 μM, 20 h; I-treated versus untreated; P < 0.05, |log2(fold change)| > 1.

`COc1cc2cc(C(=O)CCC(=O)[O][Pt]([NH2])([NH2])([OH])([Cl])[Cl])sc2cc1OC` [conjugate I]: the transcripts significantly downregulated is on record as 2143 and the transcripts significantly upregulated is 2563.
